The results in this text go back to doi:10.1101/2020.11.12.379313.

Amino acid sequences for entries named in this document (tags omitted). Residues count along the entry.
UniProt P05067, residues 672-770: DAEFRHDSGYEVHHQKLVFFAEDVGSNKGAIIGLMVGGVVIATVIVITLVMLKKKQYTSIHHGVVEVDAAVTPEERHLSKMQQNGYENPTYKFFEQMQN
UniProt Q3TCV3: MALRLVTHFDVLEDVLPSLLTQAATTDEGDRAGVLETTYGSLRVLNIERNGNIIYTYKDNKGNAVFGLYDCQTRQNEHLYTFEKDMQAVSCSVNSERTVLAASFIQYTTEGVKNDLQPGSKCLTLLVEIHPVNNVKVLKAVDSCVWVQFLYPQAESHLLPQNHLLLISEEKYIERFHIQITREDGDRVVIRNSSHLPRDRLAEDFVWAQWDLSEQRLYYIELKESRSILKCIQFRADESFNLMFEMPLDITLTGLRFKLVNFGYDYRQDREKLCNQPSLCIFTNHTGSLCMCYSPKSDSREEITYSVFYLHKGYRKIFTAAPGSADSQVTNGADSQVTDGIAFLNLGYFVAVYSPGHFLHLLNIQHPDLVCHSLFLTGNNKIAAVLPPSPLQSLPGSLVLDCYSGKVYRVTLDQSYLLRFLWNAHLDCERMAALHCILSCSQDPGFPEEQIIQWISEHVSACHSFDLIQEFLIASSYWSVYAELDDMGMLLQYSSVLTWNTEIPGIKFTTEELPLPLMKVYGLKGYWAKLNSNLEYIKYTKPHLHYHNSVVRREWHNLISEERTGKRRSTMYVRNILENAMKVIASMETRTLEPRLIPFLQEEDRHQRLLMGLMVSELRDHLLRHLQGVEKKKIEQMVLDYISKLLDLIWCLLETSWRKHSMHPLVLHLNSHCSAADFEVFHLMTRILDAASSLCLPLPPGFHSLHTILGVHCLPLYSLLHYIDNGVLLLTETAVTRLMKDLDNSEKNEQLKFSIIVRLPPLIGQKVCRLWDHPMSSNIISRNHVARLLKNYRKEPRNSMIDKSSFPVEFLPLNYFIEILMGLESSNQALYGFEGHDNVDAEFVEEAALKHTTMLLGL

The experiment deals with Flag-APP-C99 (UniProt P05067). Briefly: co-IP.

These are yes or no findings as the source states them, for the method shown. Binding seen in cells or lysates may run through a third protein. Some entries that bind do so weakly or less than the wild type.

In the case of “mouse full length GSAP with HA tag (from UniProt Q3TCV3 1-858)”, the binding entry is given as “binds”.
